Source: PubChem BioAssay AID1035470 (Broad Institute, 2014)
The whole screen tested about 1,800 compounds, of which fewer than 10 were called active. Another 16% or so got no clear call; they are omitted.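 The calls were made as follows: active = compound lowering the normal-ribosome reporter at least twice as much as the humanized-ribosome reporter, growth loss under a set limit; inconclusive = no clear call, values can overlap the other calls; inactive = the rest.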 Only a part is listed here, and it is no random draw. Potency and affinity values are given separately.

experiment: growth inhibition of wild-type GFP E. coli versus G2058-humanized strain, dose response, G2058 mutant RFP vs wild-type GFP, cherry-pick, two tests (AID 1035470); settings: E. coli WT-GFP vs G2058-humanized RFP, fluorescence, 24 h; at 50 µM (top of the series)

Activity change, negative = inhibition, inactive:
Cc1ccc([N+](=O)[O-])c(OCCn2cnc3ccccc32)c1 -5.38, COc1ccc(NC(=O)c2ccc(COc3ccccc3Br)o2)c(OC)c1 -16.7, O=C(COC(=O)C1CC1)Nc1nc(-c2ccc(F)c(F)c2)cs1 -19.8, CSc1nnnn1-c1ccc(Cl)cc1 -12.6, CC(C)(C)CC(=O)NCCc1csc(-c2ccccc2)n1 1.87, COc1ccccc1N(C)S(=O)(=O)c1ccc(Cl)c(C(=O)NC2=NCCS2)c1 -15.9, COc1ccc(OC)c(NC(=O)COC(=O)CCNc2ccccc2OC)c1 -10.2, CC1Cc2cc(S(=O)(=O)N3CCN(c4cccc(Cl)c4)CC3)ccc2N1C(=O)C1CC1 (stereo not drawn) -12.6, CCN(C(=O)COC(=O)CCc1ccccc1)c1ccccc1 2.79, CCOC(=O)c1cnc2ccc(OCC)cc2c1NCCCN1CCOCC1 -9.57, COc1cc(CC(=O)Nc2nc(C)cs2)cc(OC)c1OC -4.69, COc1cccc(NC(=O)c2ccc(-c3ccc([N+](=O)[O-])cc3)o2)c1 -18.6, C[C@@H]1CN([C@@H](C)CO)C(=O)c2cccc(NC(=O)c3nc4ccccc4s3)c2O[C@@H]1CN(C)CC1CC1 -5.32, O=C(NCCCN1CCOCC1)c1sc2cc([N+](=O)[O-])ccc2c1Cl 8.82, O=S(=O)(Nc1ccccc1N1CCCCC1)c1cccs1 -4.94, COc1ccc(CN(C)C(=O)c2cc(-c3ccc(OC)c(OC)c3)nc3ccccc23)c(OC)c1 -7.07, COc1cc[n+]([O-])cc1[N+](=O)[O-] 6.82, Cc1cccc(C)c1Nc1ncnc2ccccc12 -6.03, O=C(Nc1ccc(Cl)c(Cl)c1)N[C@@H]1CC[C@@H](CCn2cc(C3CCCCC3)nn2)O[C@H]1CO -14.9, CN1CCN(C(=O)c2cc3nc(-c4ccco4)cc(C(F)(F)F)n3n2)CC1 1.97, C[C@@H]1CN([C@@H](C)CO)C(=O)c2cc(NC(=O)Nc3cccc4ccccc34)ccc2O[C@@H](C)CCCCO[C@H]1CN(C)C 5.58, Cc1cc(C)c(NC(=O)C(C)c2cccc(C(=O)c3ccccc3)c2)c(C)c1 (stereo not drawn) -24.5, COc1ccc(C2CC(c3ccc(Br)cc3)=NN2C(=O)CN2CCCC2)cc1 (stereo not drawn) -6.02, COc1ccc(-c2nc(C3CCCCC3)no2)cc1OC -15.4, O=C(CCC(=O)N1CCN(c2ccc(F)cc2)CC1)c1ccc(F)cc1 -14.1, O=C(Nc1ccn(Cc2ccc(Cl)cc2)n1)c1ccccc1 -8.56, COc1ccc(NC(=O)CN(c2ccccc2OC)S(=O)(=O)c2cccs2)cc1Cl -19.3, CCC(C(=O)NC1CCCC1)n1c(-c2ccnc3ccccc23)nc2ccccc21 (stereo not drawn) -22.6, COc1ccc(C2CC(c3cccs3)=Nc3ccccc3S2)cc1 (stereo not drawn) -14.2, Cn1c(=O)c2c(-c3ccccc3)n(-c3cc([N+](=O)[O-])ccc3N)cc2n(C)c1=O -18.6, CNC(=O)c1sc(-c2ccccn2)nc1C 5.34, O=[N+]([O-])c1ccc2nc(-c3ccccc3[N+](=O)[O-])[nH]c2c1 -1.6, O=S(=O)(NCc1cc(-c2ccccc2)no1)c1ccccc1Cl -13.4, CCC1CCCCN1C(=O)CSc1nnc(-c2cccc(Cl)c2)o1 (stereo not drawn) -21.8, Cn1cc(CN2CCCC(C(=O)c3cccs3)C2)c(-c2cccc(Cl)c2)n1 (stereo not drawn) -5.45, O=C(Nc1ccc(Cl)cn1)c1ccc([N+](=O)[O-])o1 -7.62, NC(=O)c1cccnc1Oc1ccc(Cl)cc1Cl -0.964, C=CCN(c1ccccc1)S(=O)(=O)c1ccc(Cl)c(C(=O)OCC(=O)NCCCN2CCCC2=O)c1 -7.04, Cc1noc(C)c1NC(=O)Nc1ccc2c(c1)C(=O)N([C@@H](C)CO)C[C@@H](C)[C@H](CN(C)C(=O)Nc1ccc3c(c1)OCO3)OCCCC[C@H](C)O2 -11.1, COc1ccc(Cc2c(-c3cccc(Cl)c3)nc3ccc(Cl)cn23)c(C)c1 7.25, O=[N+]([O-])c1ccc(/C=C/c2ccc3cccc([N+](=O)[O-])c3n2)cc1 -9.89, CCOc1ccc(CN(C)C(=O)c2ccc(NS(=O)(=O)c3ccc4[nH]c(=O)[nH]c4c3)cc2)cc1 -6.14, CCOC(=O)C1CCCN(Cc2c(Cl)cccc2Cl)C1 (stereo not drawn) -11.9, O=C(c1ccccc1)N(c1ccccc1)c1nccc2ccccc12 -1.24, O=C(Nc1ccc(Nc2ccccc2)cc1)c1ccc(F)cc1 -12.1, CCc1cccc(CC)c1NC(=O)Cn1c(-c2ccc(F)cc2)noc1=O 6.64, CC(C)[C@@H]1CC[C@@H](C)C[C@H]1O 36.5, Cc1nc2ncnn2c(N2CCC(C(=O)NC3CCCC3)CC2)c1Cc1ccccc1 -18.8, C[C@H](CO)N1C[C@H](C)[C@H](CN(C)C(=O)Nc2ccc(F)cc2)Oc2c(NC(=O)Nc3ccccc3)cccc2C1=O -2.94, Cc1ccc(-c2c[n+](CC(=O)Nc3ccccc3)c3n2CCC3)cc1 -6.8, Cc1nn2c(NCc3ccccn3)cc(C(C)C)nc2c1-c1ccccc1 -11.1, S=c1nc(-c2cc(Cl)cc(Cl)c2)[nH][nH]1 -16.2, COC(=O)c1cc(C)sc1NC(=O)CC1Nc2ccccc2NC1=O (stereo not drawn) -10.8, CC(=O)Nc1ccc(NS(=O)(=O)c2ccc(Cl)s2)cc1 17.5, CCN(CC)CCNC(=O)c1cc2cc3ccc(OC)cc3nc2o1 -3.1, CC(=O)c1cccc(NC(=O)COC(=O)CCC(=O)c2ccc(F)cc2)c1 -16.7, O=C(Nc1ccc(C(F)(F)F)cc1)C1CCN(c2cnccn2)CC1 -6.77, CCc1nnc(NC(=O)CSc2ncc(-c3ccccc3)[nH]2)s1 -3.58, Clc1ccccc1C1CC(c2ccccc2)=Nc2ccccc2N1 (stereo not drawn) -13.3, O=C(OCC(=O)N1CCOCC1)c1cccc(S(=O)(=O)N2CCCc3ccccc32)c1 -11.8, COc1cc(SC)ccc1C(=O)N(Cc1ccccc1)c1ccccn1 -3.19, CCCCNC(=O)c1c(N)[nH]c(C(=O)c2ccccc2)c1-c1ccccn1 -9.97, Cc1ccc(NC(=O)C[n+]2cc(-c3ccccc3)n3c2CCC3)cc1 12.5, O=C(COC(=O)CNC(=O)c1ccc(F)cc1)Nc1cccc(S(=O)(=O)N2CCCC2)c1 0.469, Cc1ccc(-n2c(SCC(N)=O)nnc2-c2cnccn2)cc1 -1.72, Cn1cc(CN(CCO)Cc2cccs2)c(-c2cccc(Cl)c2)n1 -20.2, CCCN1C(=O)C(O)(c2c(C)[nH]c3ccccc23)c2ccccc21 (stereo not drawn) -17, COCc1[nH]nc2c1C(c1ccc3c(c1)OCO3)N(c1ccc(OC)cc1)C2=O (stereo not drawn) -13, CCN(CC(=O)Nc1cccc(S(=O)(=O)N2CCCC2)c1)CC(=O)Nc1ccccc1OC -14.9, CC(C)=C(c1ccc(Cl)cc1)c1c(N)ncnc1N -3.62, O=S(=O)(Cc1ccc(Cl)cc1)N1CCN(Cc2ccc3c(c2)OCO3)CC1 -9.04, O=C(Cc1ccc(Br)cc1)Nc1cccc(-c2cn3c(n2)SCC3)c1 -18.9, COc1cccc(SCC(=O)N2CCN(c3ccccc3)CC2)c1 -8.2, Cc1ccccc1-n1nnnc1SCCCC(=O)c1ccc(F)cc1 -19, Nc1[nH]c(C(=O)c2ccccc2)c(-c2ccc(Cl)cc2)c1C(=O)NCCc1c[nH]c2ccccc12 -22.3, Cc1ccc(S(=O)(=O)Nc2ccc3c(c2)C(=O)N([C@@H](C)CO)C[C@@H](C)[C@H](CN(C)C(=O)c2ccccc2)OCCCC[C@@H](C)O3)cc1 0.461, COc1ccc(CN2CCNC(=O)C2CC(=O)NCCCC2CCCC2)c(C)c1C (stereo not drawn) 0.654, N#Cc1ccc(-c2ccc(C3[C@H]4CNC[C@@H]3N4S(=O)(=O)c3ccc(-c4ccccc4)cc3)cc2)cc1 (stereo partly drawn) -9.11, c1cc2cc(-c3c(-c4ccc5c(c4)OCO5)noc3-c3ccsc3)ccc2[nH]1 -0.174, CCOc1ccccc1C(=O)NCC(=O)OCCOc1cccc(Cl)c1 -3.78, COc1cc(OC)cc(C(=O)N[C@H](C(=O)OCC(=O)Nc2ccc(F)c(F)c2F)C(C)C)c1 -2.53, COc1ccc(NC(=O)Nc2cccc3c2O[C@H](CN(C)S(=O)(=O)c2ccc(Cl)cc2)[C@@H](C)CN([C@@H](C)CO)C3=O)cc1 -14, Cn1ccc2cc(-c3ccc4ncnc(NCc5cccs5)c4c3)ccc21 -12.9, COc1ccc(CN2C(=O)CC(Cc3cc(C)cc(C)c3)C2=O)cc1OC (stereo not drawn) -14.6, Cc1ccc2nc(SCC(=O)c3ccc4c(c3)NC(=O)CO4)[nH]c2c1 -2.27, Cc1ccc(S(=O)(=O)N(C(=O)c2ccncc2)c2ccc(OC(=O)c3ccncc3)cc2)c(C)c1 -4.38, CC1CN(CC(=O)Nc2nc3ccccc3s2)CC(C)O1 (stereo not drawn) -0.471, O=C(OCC1COc2ccccc2O1)c1ccccc1F (stereo not drawn) -7.69
